Reference: patent US5567624A, “Carbazine dyes and derivatives for pH measurement” (Utah Medical Products, Inc., priority 1995, dated 1996)

Assay: Relative susceptibility of the dyes to immobilization on a solid support
Conditions: relative scale of 1 to 10 where 10 is best (1 = no detectable amount of dye bound); 2% carbonate solution; Method 2
Method: The relative susceptibilities of the dyes to immobilization on a solid support were determined from the intensity of dye covalently bound to regenerated cellulose dialysis membrane. The immobilization data summarized in the Table below were taken from measurements in 2% carbonate solution normalized to an arbitrary scale of 1 to 10, where 1 represents no detectable amount of dye bound and 10 represents the greatest quantity of dye bound. The conditions of coupling of the dyes to the regenerated cellulose were according to immobilization Method 2 described below. Carbazine dyes immobilized under these conditions yield a uniform fluorescent blue dialysis membrane that changes to fluorescent orange upon acidification. As a point of reference, the carbazine dye of Example 3 immobilized on a "SPECTRAPOR 1" membrane (molecular weight cutoff 6000 to 8000) yields a blue membrane with an absorbance at 660 nm of greater than 1 at pH>9.

With `CC1=CC(=O)C(C)=C(C)C12C1=CC(=O)C=CC1=Nc1ccc(O)cc12` (stereo not shown) [Example 3] the Immobilization was 6.

`CC1=C(C)C2(C3=CC(=O)C=CC3=Nc3ccc(O)cc32)C(C)=C(C)C1=O` [Example 4, 7-hydroxy-2',3',5',6'-tetramethylspiro[acridine-9,1'-cyclohexa-2', 5'-diene]-2(9H), 4'-dione] showed an Immobilization of 4.

In the case of `CC1=CC(=O)C=C(C(C)C)C12C1=CC(=O)C=CC1=Nc1ccc(O)cc12` (stereo not shown) [Example 6], the Immobilization is reported as 6.

With `CC(C)(C)C1=CC2(C=CC1=O)C1=CC(=O)C=CC1=Nc1ccc(O)cc12` (stereo not shown) [Example 7] the Immobilization was 1.

`O=C1C=CC2=Nc3ccc(O)cc3C3(C=CC(=O)C4=C3CCCC4)C2=C1` (stereo not shown) [Example 5] showed an Immobilization of 6.

In the case of `CC1=CC(=O)C=C(C)C12C1=CC(=O)C=CC1=Nc1ccc(O)cc12` [Example 2], the Immobilization is reported as 6.

Molecule `O=C1C=CC2(C=C1)C1=CC(=O)C=CC1=Nc1ccc(O)cc12` [Example 1, 7-hydroxyspiro[acridine-9,1'-cyclohexa-2',5'-diene]-2(9H),4'-dione] has an Immobilization of 10.
